Results reported in the supplement of paper PMC10849652.
The list shows a part of the results.

Protein sequences, listed by entry. Tags and fused reporters are not part of them. Lines headed by an entry give the natural chain unless they say otherwise; changes in a name come on top.
UniProt Q9NYS0: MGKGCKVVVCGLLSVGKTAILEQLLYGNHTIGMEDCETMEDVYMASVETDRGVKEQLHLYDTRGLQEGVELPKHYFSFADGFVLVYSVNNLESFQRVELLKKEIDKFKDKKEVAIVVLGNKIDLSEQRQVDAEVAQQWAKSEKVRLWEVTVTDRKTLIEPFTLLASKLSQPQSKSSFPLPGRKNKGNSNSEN
UniProt Q7Z628: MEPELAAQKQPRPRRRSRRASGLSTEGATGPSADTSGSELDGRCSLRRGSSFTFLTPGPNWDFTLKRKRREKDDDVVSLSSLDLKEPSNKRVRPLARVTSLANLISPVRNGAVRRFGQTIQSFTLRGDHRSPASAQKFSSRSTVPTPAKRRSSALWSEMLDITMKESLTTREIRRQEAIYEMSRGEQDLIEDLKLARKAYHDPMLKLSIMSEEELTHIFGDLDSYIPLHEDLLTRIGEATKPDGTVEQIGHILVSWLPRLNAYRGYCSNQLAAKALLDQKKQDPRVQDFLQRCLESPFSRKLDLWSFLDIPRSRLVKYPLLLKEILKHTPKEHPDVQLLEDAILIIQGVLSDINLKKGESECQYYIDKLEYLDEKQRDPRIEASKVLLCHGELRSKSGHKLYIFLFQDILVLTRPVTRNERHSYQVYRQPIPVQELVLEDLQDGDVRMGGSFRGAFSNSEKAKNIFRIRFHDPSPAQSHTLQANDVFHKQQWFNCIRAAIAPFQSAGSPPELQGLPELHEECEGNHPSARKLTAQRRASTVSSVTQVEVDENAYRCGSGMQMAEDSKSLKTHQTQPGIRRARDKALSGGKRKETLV
UniProt Q9UMX5: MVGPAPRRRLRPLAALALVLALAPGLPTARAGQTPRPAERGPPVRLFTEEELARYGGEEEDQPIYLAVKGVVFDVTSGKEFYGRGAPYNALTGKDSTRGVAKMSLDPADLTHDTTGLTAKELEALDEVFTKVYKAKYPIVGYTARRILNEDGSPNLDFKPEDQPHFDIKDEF
UniProt Q5JS37: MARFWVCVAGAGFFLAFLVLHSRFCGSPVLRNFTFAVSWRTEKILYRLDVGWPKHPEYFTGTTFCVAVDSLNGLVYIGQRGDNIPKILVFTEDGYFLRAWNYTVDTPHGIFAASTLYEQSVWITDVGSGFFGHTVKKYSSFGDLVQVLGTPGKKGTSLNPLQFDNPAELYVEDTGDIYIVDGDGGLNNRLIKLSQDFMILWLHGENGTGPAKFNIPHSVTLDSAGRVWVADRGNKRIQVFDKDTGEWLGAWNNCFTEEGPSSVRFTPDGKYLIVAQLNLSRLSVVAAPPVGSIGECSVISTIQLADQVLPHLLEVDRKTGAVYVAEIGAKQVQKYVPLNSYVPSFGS
UniProt O75323: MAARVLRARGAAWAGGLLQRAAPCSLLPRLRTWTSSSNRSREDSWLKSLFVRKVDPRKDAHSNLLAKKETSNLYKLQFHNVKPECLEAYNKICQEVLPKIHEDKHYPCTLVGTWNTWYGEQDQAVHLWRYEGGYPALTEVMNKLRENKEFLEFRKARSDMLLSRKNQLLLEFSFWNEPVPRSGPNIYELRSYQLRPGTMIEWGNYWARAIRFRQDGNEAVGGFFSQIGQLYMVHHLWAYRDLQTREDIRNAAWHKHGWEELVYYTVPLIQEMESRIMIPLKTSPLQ
UniProt Q86UT6, whole entry, looked up: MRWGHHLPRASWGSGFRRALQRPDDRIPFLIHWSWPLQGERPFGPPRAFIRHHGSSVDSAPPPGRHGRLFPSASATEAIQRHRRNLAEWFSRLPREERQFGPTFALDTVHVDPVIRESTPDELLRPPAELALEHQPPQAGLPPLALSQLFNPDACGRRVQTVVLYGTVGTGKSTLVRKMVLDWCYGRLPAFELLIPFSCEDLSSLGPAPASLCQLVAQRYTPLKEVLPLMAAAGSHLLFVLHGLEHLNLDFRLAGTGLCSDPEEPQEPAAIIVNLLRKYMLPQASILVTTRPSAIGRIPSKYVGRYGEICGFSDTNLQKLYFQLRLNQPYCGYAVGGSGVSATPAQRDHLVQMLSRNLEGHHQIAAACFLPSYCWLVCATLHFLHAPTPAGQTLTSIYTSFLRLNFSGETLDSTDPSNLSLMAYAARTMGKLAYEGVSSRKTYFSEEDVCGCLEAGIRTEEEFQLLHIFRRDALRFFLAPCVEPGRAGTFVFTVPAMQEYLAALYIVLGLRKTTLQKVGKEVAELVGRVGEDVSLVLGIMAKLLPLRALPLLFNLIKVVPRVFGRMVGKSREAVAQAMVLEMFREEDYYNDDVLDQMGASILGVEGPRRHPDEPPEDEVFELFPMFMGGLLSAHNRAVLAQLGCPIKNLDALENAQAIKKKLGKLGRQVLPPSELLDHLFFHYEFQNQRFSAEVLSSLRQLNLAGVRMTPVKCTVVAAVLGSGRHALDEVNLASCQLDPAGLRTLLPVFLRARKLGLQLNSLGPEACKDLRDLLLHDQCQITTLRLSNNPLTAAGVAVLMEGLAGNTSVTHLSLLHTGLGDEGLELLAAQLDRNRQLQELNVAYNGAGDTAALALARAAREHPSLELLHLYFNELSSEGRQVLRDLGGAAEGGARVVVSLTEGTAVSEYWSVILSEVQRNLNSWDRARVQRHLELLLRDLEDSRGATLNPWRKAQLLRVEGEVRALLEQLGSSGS
UniProt Q14494: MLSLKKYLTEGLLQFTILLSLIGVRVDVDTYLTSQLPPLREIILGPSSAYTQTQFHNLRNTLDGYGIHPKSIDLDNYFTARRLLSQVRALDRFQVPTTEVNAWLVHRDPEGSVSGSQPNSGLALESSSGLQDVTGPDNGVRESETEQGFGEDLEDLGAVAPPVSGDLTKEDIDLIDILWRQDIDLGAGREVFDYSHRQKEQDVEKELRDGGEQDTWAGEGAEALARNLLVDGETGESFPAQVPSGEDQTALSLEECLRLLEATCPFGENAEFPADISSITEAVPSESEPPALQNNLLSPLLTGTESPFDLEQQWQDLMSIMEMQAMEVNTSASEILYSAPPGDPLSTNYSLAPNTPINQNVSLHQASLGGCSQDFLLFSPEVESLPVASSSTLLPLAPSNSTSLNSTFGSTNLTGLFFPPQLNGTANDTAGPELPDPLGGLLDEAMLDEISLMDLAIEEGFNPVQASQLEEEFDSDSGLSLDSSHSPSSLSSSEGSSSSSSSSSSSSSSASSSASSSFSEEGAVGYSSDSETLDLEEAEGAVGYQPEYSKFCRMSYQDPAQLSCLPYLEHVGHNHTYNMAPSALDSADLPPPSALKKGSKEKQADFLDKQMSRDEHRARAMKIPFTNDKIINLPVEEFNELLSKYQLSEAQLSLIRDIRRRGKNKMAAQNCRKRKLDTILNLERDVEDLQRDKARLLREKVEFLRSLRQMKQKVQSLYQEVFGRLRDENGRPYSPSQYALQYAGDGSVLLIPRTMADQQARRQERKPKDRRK
UniProt Q7RTP0: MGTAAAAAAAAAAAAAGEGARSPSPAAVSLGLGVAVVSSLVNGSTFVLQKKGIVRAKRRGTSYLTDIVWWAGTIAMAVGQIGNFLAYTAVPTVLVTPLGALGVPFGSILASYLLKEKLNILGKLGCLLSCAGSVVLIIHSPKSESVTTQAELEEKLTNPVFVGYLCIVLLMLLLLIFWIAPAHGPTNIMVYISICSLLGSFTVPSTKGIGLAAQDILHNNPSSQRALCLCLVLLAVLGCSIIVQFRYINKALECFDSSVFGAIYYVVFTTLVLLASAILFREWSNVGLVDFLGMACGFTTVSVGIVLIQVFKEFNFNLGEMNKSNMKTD
UniProt O15226: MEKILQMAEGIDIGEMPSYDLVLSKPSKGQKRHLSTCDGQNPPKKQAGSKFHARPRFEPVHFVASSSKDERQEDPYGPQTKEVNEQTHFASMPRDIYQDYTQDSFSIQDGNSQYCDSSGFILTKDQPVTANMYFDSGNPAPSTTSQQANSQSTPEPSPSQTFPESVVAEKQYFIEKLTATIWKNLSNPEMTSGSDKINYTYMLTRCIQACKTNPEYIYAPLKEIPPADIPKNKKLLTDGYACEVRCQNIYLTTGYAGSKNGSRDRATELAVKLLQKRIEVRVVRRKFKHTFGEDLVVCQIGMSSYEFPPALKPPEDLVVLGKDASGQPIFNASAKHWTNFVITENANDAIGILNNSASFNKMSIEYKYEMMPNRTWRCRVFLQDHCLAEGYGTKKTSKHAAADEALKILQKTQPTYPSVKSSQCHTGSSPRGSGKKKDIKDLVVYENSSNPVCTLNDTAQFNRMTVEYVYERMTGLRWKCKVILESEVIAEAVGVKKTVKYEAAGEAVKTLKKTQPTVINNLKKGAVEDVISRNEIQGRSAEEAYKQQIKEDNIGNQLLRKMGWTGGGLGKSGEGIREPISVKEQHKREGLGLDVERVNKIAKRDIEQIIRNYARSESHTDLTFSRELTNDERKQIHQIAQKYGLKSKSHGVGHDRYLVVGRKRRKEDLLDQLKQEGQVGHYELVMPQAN
UniProt Q92692, whole entry, looked up: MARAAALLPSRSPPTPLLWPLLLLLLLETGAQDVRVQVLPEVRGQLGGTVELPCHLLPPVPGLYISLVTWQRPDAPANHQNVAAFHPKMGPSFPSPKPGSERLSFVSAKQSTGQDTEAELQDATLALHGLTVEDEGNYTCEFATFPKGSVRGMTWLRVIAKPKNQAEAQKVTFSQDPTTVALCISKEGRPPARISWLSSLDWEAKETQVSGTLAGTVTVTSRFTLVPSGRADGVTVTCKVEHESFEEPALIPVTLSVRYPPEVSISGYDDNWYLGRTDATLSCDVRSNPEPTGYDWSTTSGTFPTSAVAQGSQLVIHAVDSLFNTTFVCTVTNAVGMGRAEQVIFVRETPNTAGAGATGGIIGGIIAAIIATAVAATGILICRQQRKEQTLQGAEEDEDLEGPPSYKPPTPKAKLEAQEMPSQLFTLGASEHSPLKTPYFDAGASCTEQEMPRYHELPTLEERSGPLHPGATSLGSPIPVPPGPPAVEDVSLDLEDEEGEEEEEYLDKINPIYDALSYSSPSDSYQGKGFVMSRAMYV
UniProt P51957: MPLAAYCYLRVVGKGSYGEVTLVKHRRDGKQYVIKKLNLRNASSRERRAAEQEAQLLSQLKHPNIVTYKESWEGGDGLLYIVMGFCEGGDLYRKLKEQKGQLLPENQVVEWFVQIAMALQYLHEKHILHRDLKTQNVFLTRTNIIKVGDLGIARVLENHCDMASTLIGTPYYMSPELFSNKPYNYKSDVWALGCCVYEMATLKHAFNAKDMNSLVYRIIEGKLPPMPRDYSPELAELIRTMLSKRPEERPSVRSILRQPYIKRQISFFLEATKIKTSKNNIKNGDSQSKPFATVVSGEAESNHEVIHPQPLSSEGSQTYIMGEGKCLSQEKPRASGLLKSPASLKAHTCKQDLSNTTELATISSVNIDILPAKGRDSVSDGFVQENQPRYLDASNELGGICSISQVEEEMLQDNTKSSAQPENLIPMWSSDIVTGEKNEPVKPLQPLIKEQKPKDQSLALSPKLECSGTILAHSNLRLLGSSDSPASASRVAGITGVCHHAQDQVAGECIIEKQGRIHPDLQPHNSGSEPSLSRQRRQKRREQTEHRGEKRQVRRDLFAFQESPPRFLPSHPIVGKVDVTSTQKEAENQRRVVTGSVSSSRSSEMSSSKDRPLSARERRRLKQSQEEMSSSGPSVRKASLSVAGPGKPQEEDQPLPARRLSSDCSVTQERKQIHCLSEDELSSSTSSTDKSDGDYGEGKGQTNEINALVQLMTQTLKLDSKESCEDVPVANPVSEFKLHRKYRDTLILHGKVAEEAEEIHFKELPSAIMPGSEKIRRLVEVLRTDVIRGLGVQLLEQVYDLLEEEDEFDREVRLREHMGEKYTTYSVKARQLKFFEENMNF
UniProt Q12857, whole entry, looked up: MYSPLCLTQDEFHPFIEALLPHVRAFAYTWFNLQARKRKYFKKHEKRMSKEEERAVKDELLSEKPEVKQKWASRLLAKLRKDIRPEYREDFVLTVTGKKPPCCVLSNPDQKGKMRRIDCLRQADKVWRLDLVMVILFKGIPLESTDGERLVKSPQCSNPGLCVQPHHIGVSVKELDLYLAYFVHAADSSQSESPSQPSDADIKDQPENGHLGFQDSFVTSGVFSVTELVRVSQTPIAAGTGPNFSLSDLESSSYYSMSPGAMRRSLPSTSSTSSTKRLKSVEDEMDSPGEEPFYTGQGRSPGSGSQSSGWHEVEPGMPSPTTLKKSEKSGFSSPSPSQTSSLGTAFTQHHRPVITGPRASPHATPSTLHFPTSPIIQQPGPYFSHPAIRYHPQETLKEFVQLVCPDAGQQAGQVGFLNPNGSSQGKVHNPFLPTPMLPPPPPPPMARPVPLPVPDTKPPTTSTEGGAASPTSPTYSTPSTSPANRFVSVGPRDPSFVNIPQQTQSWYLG
UniProt O95096: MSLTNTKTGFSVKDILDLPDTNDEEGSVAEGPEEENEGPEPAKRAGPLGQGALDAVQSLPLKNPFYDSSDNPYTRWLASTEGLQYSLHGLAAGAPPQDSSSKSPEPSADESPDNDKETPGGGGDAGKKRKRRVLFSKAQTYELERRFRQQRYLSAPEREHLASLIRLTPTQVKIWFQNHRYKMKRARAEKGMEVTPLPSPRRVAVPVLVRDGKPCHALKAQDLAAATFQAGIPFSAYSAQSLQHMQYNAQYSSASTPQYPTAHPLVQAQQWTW

compound: CC1=C2C(=CC=C1)N=C(N(C2=O)C3=CC=CC=C3C)CN4C=NC5=C(N=CN=C54)N; experiment: log2 fold change, soluble protein after heating vs DMSO (PISA); higher = thermal stabilisation; K562 lysate, 10 uM; active = over 0.2 and 3.5 SD of the protein, either way, in both replicates (recomputed)
How it was run: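 Soluble protein was defined as the supernatant remaining after 21,000xg for 90 min, following pooling of heated aliquots and adjustment to 0.5% NP-40 at 4°C. Before that, crude K562 extract at 1 mg/mL protein in PBS pH 7.4 with 1 mM MgCl2 was treated with 10 μM compound for 30 min and heated for 3 min across 48°C-58°C. Quantification used TMTpro 16plex LC-MS/MS with channel sums equalised, and values are log-two fold changes in thermal stability relative to solvent controls from duplicates.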

Row | Target | log2 fold change
1 | NKIRAS1 (UniProt Q9NYS0) | inactive: 0.247
2 | NIF3L1 (UniProt Q9GZT8) | inactive: 0.031
3 | NET1 (UniProt Q7Z628) | inactive: -0.019
4 | NENF (UniProt Q9UMX5) | inactive: -0.001
5 | NDUFS1 isoform 2 (UniProt P28331) | inactive: 0.022
6 | NDUFAB1 (UniProt O14561) | inactive: -0.108
7 | NIPSNAP3B (UniProt Q9BS92) | inactive: 0.054
8 | NHLRC3 (UniProt Q5JS37) | inactive: 0.066
9 | NIPSNAP2 (UniProt O75323) | inactive: 0.069
10 | NLRX1 (UniProt Q86UT6) | inactive: -0.082
11 | NFE2L1 (UniProt Q14494) | inactive: 0.02
12 | NLK (UniProt Q9UBE8) | inactive: -0.109
13 | NIPA1 (UniProt Q7RTP0) | inactive: -0.05
14 | NEK5 (UniProt Q6P3R8) | inactive: 0.079
15 | NKRF isoform 2 (UniProt O15226) | inactive: 0.003
16 | NECTIN2 isoform 2 (UniProt Q92692) | inactive: 0.049
17 | NEURL4 (UniProt Q96JN8) | inactive: 0.018
18 | NEK4 (UniProt P51957) | inactive: 0.128
19 | NDUFB10 (UniProt O96000) | inactive: 0.011
20 | NDUFA3 (UniProt O95167) | inactive: -0.009
21 | NDUFA4 (UniProt O00483) | inactive: -0.063
22 | NFIA isoform 4 (UniProt Q12857) | inactive: -0.004
23 | NKX2-2 (UniProt O95096) | inactive: 0.053

Looked up one by one from the entries so far:
Row | Target | log2 fold change
22 | NFIA isoform 4 (UniProt Q12857) | inactive: -0.004
23 | NKX2-2 (UniProt O95096) | inactive: 0.053
